Source: PubChem BioAssay AID624058 (Broad Institute, 2012)
Inconclusive results, whose numbers are uncertain, are shown.

Assay: EDDHA-treated Pseudomonas aeruginosa growth inhibition – OD600, ATCC 15692, cherry-pick, set 2, dose response (AID 624058)
Conditions: P. aeruginosa ATCC 15692 with EDDHA, OD600, 24-30 h; at 50 µM (top of the series); call rule not given here

For `N#CC1C(C#N)C2CCC1C1C2N1c1ccccc1` (stereo unspecified), the growth inhibition was inconclusive: 7.58%.
